This assay has as its target FLAG-FTO (human) (UniProt Q9C0B1). In words: co-IP; IP with anti-FLAG antibody from lysate of HEK293 cells expressing FLAG-FTO; lysates treated with Benzonase prior to IP; blot for endogenous ZBTB48.

No constants are given. Whether binding was seen depends on the method and setting. In cells and extracts the contact can be indirect. Some binding calls cover weakened binding; strength is not graded here.

B1: ZBTB48 (endogenous) (protein, UniProt P10074 1-688)
chain: MDGSFVQHSVRVLQELNKQREKGQYCDATLDVGGLVFKAHWSVLACCSHFFQSLYGDGSGGSVVLPAGFAEIFGLLLDFFYTGHLALTSGNRDQVLLAARELRVPEAVELCQSFKPKTSVGQAAGGQSGLGPPASQNVNSHVKEPAGLEEEEVSRTLGLVPRDQEPRGSHSPQRPQLHSPAQSEGPSSLCGKLKQALKPCPLEDKKPEDCKVPPRPLEAEGAQLQGGSNEWEVVVQVEDDGDGDYMSEPEAVLTRRKSNVIRKPCAAEPALSAGSLAAEPAENRKGTAVPVECPTCHKKFLSKYYLKVHNRKHTGEKPFECPKCGKCYFRKENLLEHEARNCMNRSEQVFTCSVCQETFRRRMELRVHMVSHTGEMPYKCSSCSQQFMQKKDLQSHMIKLHGAPKPHACPTCAKCFLSRTELQLHEAFKHRGEKLFVCEECGHRASSRNGLQMHIKAKHRNERPHVCEFCSHAFTQKANLNMHLRTHTGEKPFQCHLCGKTFRTQASLDKHNRTHTGERPFSCEFCEQRFTEKGPLLRHVASRHQEGRPHFCQICGKTFKAVEQLRVHVRRHKGVRKFECTECGYKFTRQAHLRRHMEIHDRVENYNPRQRKLRNLIIEDEKMVVVALQPPAELEVGSAEVIVESLAQGGLASQLPGQRLCAEESFTGPGVLEPSLIITAAVPEDCDT
On to B1, for which the binding result is given as “binds”.

The values are drawn from publication PMC11414060.
